No constants are given. Whether binding was seen depends on the method and setting. In cells and extracts the contact can be indirect. A yes stands for co-enrichment or nearness to the bait. Other partners may have been found.
B1: Choline transporter-like protein 2 (protein, UniProt Q8BY89 1-706)
chain: MGKDSQNYYGKHGTPQKYDPTFKGPIYNRGCTDVICCVLLFLAIVGYVAVGIIAWTHGDPRKVIYPTDSRGEFCGQKGTKNADKPFLFYFNIVKCANPLVLLEFHCPTPQICVKQCPDRYLTLLSARNTRDFDYYKQFCVPGFQNNKGVTEILRDGECPAVITPSKPLAQRCFPAIHASKGVLMVGNETTYEDGHGARKNITDLVEGAKKANKILEARQLAMQIFEDYTVSWYWIIIGLVIAMVLSLLFIVLLRFLAGIMVWVMIVMVILVLGYGIFHCYMEYSRLRGEAGSDVSLVDLGFQTDLRVYLHLRQTWMAFMIILSILEVVIILLLIFLRKRILIAIALIKEASRAVGHVMCSLLYPLVTFFLLCLCIAYWASTSVFLSTSNTAVYKVVDDTACPLLRKTCNPETFPLRNESLQCPTARCQFAFYGGESTYHRALLGLQIFNAFMFFWLANFVLALGQVTLAGAFASYYWAMRKPDDMPAFPLFSAFGRALRYHTGSLAFGSLILAIVQIIRVMLEYLDQRLKAAQNKFAKFLMVCLKCCFWCLEKFIKFLNRNAYIMIAIYGTNFCTSARNAFFLLMRNIIRVAVLDKVTDFLFLLGKLLIVGSVGILAFFFFTHRIRIVQDTAPPLNYYWVPILTVIIGSYLIAHGFFSVYGMCVDTLFLCFLEDLERNDGSAERPYFMSSTLKKLLNKTNKKVAES
B2: Glutamyl aminopeptidase (protein, UniProt P16406 1-945)
chain: MNFAEEEPSKKYCIKGKHVAIICGVVVAVGLIVGLSVGLTRSCEQDTTPAPSQPPPEASTALPPQDQNVCPDSEDESGEWKNFRLPDFINPVHYDLEVKALMEEDRYTGIVTISVNLSKPTRDLWLHIRETKITKLPELRRPSGEQVPIRRCFEYKKQEYVVIQAAEDLAATSGDSVYRLTMEFKGWLNGSLVGFYKTTYMEDGQIRSIAATDHEPTDARKSFPCFDEPNKKSTYSISIIHPKEYSALSNMPEEKSEMVDDNWKKTTFVKSVPMSTYLVCFAVHRFTAIERKSRSGKPLKVYVQPNQKETAEYAANITQAVFDYFEDYFAMEYALPKLDKIAIPDFGTGAMENWGLVTYRETNLLYDPLLSASSNQQRVASVVAHELVHQWFGNTVTMDWWDDLWLNEGFASFFEFLGVNHAEKDWQMLSQVLLEDVFPVQEDDSLMSSHPVVVTVSTPAEITSVFDGISYSKGASILRMLQDWITPEKFQKGCQIYLKKFQFANAKTSDFWDSLQEASNLPVKEVMDTWTSQMGYPVVTVSGRQNITQKRFLLDSKADPSQPPSELGYTWNIPVRWADNDNSRITVYNRLDKGGITLNANLSGDAFLKINPDHIGFYRVNYEGGTWDWIAEALSSNHTRFSAADRSSFIDDAFALARAQLLNYKIALNLTMYLKSEEDFLPWERVISSVSYIISMFEDDRELYPMIETYFQGQVKPVADLLGWQDTGSHITKLLRASILGFACKMGDREALGNASQLFDSWLKGSASIPVNLRLLVYRYGMQNSGNEAAWNYTLEQYQKTSLAQEKEKLLYGLASVKDVKLLARYLEMLKDPNIIKTQDVFTVIRYISYNSYGKTMAWNWIQLNWDYLVSRFTINDRYLGRIVTIAEPFNTELQLWQMQSFFAKYPNAGAGAKPREQVLETVKNNIEWLNVNRQSIREWFASLP
B3: MFSD1 (protein, UniProt Q9DC37 1-464)
chain: MEDEDGEDRALLGGRREADSAVHGAPRALSALCDPSRLAHRLVVLSLMCFLGFGSYFCYDNPAALQTQVKRDMQVNTTKFMLLYAWYSWPNVVLCFLGGFLIDRIFGIRWGTVIFSCFVCIGQVIFALGGIFNAFWLMELGRFVFGIGGESLAVAQNTYAVSWFKGKELNLVFGLQLSMARIGSTVNMNLMGWLYGKIEALLGSAGHMTLGVTLMIGCITCIFSLICALALAYLDRRAEKILHKEQGKTGEVIKLRDIKDFSLPLILVFVICVCYYVAVFPFIGLGKVFFMEKFRFSSQSASAINSIVYIISAPMSPLFGLLVDKTGKNIIWVLYAVAATLVSHMMLAFTFWNPWIAMCLLGFSYSLLACALWPMVAFIVPEHQLGTAYGFMQSIQNLGLAVIAILAGMILDSKGYLLLEVFFIACVSLSLLAVVCLYLVNRAQGGNLNYSAKQRERMKLSHPE

Target: T1, Podocin (mouse (endogenous in mouse glomeruli)) (UniProt Q91X05)
T1 sequence: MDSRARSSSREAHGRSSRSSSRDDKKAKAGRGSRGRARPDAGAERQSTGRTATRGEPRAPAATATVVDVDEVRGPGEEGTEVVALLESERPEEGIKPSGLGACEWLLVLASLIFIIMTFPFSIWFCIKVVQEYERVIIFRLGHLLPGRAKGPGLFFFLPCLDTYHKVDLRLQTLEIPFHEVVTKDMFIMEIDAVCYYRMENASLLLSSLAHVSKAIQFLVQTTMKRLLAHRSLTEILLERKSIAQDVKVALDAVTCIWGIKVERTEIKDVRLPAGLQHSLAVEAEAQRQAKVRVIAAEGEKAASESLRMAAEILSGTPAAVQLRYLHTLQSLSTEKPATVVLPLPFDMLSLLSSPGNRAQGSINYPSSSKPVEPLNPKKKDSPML
Experiment: affinity purification with mass spectrometry; two anti-Podocin ABs immobilised on magnetic beads, two hours with CL-47 or CL-91 solubilisates of glomerular membrane fractions of wildtype mice; control: Podocin knockout mice; eluates by nano-LC-MS/MS; specific: tnR >0.25 with both ABs in either of two solubilisation conditions

binding, binds:
B1
B2
B3
